The source holds more than one record for some entries. The other results are left out here. An entry can have further records. Values that stand side by side do not match, cause unknown; they may come from other doses, times, organisms or constructs than stated.
Columns and labels:
[1] = target: 5-HT3A receptors (Homo sapiens, UniProt P46098); test: Radioligand association and dissociation kinetics, HEK293 membranes; format: binding; conditions: tested as the radiolabelled form
[2] = target: 5-HT3AB receptors (Homo sapiens, UniProt P46098); test: as above; format: binding; conditions: tested as the radiolabelled form

Chains of the proteins cited; added tags and fusions are not shown. Residues count along the entry.
UniProt P46098, 24-478 limits assumed: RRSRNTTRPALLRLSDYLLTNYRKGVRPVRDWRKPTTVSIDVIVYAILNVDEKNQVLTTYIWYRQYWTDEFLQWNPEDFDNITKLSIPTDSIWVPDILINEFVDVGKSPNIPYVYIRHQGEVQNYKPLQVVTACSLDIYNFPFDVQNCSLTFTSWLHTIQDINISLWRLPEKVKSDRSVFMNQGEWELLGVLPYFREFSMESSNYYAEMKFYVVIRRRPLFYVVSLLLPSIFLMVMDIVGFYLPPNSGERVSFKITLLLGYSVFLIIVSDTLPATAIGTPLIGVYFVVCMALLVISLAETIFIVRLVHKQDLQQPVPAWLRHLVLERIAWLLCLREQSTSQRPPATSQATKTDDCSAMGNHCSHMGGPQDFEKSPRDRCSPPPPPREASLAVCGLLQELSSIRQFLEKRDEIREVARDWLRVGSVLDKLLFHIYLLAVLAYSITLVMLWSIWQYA
UniProt O95264, 22-441 partner limits assumed: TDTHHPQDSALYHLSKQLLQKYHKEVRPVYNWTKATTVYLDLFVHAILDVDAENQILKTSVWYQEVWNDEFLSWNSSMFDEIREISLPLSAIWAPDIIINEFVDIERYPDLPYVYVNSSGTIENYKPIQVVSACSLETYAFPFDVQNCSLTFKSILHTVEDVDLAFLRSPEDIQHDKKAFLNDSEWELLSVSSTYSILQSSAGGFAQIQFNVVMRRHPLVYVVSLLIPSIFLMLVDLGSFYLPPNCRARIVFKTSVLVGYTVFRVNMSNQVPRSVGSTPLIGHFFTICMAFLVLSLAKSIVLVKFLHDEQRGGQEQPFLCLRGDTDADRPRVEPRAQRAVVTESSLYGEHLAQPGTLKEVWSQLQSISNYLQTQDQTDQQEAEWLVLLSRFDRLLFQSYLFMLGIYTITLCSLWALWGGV

time to complete association (maximal levels) [1]: 30 min and ≤ 30 min
time to complete association (maximal levels) [2]: 30 min and ≤ 30 min
Structure (SMILES): O=C1c2cccc3c2[C@H](CCC3)CN1[C@@H]1CN2CCC1CC2

Source: article PMC3778450, “Agonists and antagonists induce different palonosetron dissociation rates in 5-HT3A and 5-HT3AB receptors^” (Neuropharmacology, 2013)
